Structures are written as SMILES. Structures can show the parent of a compound that is named as a salt. The list shows a part of the results. Single values are uncertain here, since repeats match poorly.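 A first-round screen of about ten thousand compounds sought those raising reporter output, using human embryonic kidney cells briefly transfected with a plasmid carrying a Renilla luciferase gene driven by the HSV-TK promoter.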

Our source for the log values is the supplement of paper PMC7024190.

The test relates to HEK 293FT. The experiment in a line: log relative Renilla luciferase luminescence (reporter expression vs reference, reference not stated) (log (base not stated)); higher = higher recombinant reporter expression. The note with it: 10 µM; time after transfection 48 h.
Take `C=CCN1CCc2cc(O)c(O)cc2C(c2ccccc2)C1` (centres undefined): the log was 0.214.
For the molecule `N[C@@H](C(=O)O)c1ccc(C(=O)O)c(C(=O)O)c1`, the log was found to be 0.0219.
The same measure for `O=S(=O)(NCCNC/C=C/c1ccc(Br)cc1)c1cccc2cnccc12` [H 89 dihydrochloride]: -0.0964.
For `CN(C)C/C=C(/c1ccc(Br)cc1)c1cccnc1` [Zimelidine dihydrochloride], the log is -0.497.
